PubChem BioAssay AID652272 | Drosophila RNAi Screening Center – 2013

Assay: 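Genome-wide knock-down search for components of Hedgehog signalling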 (primary screen)
Cell system: Drosophila clone 8 (Cl8) cells
Reagents: long dsRNA against Drosophila genes
Detection: 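Plate reader light from a firefly reporter under a ptc promoter fragment that responds to Hedgehog, with Renilla light as transfection reference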
Reading the numbers: firefly Hh reporter signal: higher = more ptc reporter light; Renilla reference signal: higher = more Renilla control light
Hit rule: 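Hit when the z-score averaged over two replicates is under -2 or over +3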
Calls: active = hit: reporter lowered or raised; inactive = not a hit
In all, the deposit lists about 21,000 reagents; this is an unselected part of those with a known target gene and a result. Of all reagents, 503 (2.4%) are marked active. 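Raw plate light values, not normalised; calls rest on replicate z-scores that were not deposited; hits include reporter decreases as well as increases.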 The record does not give: the amount of reagent, the time to read-out.

With knock-down of c12.2 (GeneID 53434) [DRSC18751], the screen gave firefly Hh reporter signal, replicate 1 = 43722; firefly Hh reporter signal, replicate 2 = 1.15e5; Renilla reference signal, replicate 1 = 1239; Renilla reference signal, replicate 2 = 5541; inactive.
Knock-down of CG15308 (GeneID 50415) [DRSC17995] gave: firefly Hh reporter signal, replicate 1 = 80903; firefly Hh reporter signal, replicate 2 = 2.24e5; Renilla reference signal, replicate 1 = 2449; Renilla reference signal, replicate 2 = 7909; inactive.
CG13461 (GeneID 39635) [DRSC10008] scored firefly Hh reporter signal, replicate 1 = 71912; Renilla reference signal, replicate 1 = 4161; Renilla reference signal, replicate 2 = 2134; inactive.
CG34320 (retired record) (GeneID 5740595) [DRSC17682] showed firefly Hh reporter signal, replicate 1 = 6.58e5; firefly Hh reporter signal, replicate 2 = 2.70e5; Renilla reference signal, replicate 1 = 32761; Renilla reference signal, replicate 2 = 5248; inactive.
Depletion of phol (GeneID 39095) [DRSC10367] came out at: firefly Hh reporter signal, replicate 1 = 68012; firefly Hh reporter signal, replicate 2 = 33139; Renilla reference signal, replicate 1 = 3715; Renilla reference signal, replicate 2 = 1744; inactive.
Eig71Ee (GeneID 39706) [DRSC11152] scored firefly Hh reporter signal, replicate 1 = 1.96e5; Renilla reference signal, replicate 1 = 9122; Renilla reference signal, replicate 2 = 5498; inactive.
Against Lrrk (GeneID 42447) [DRSC15816], the values are firefly Hh reporter signal, replicate 1 = 7.61e5; firefly Hh reporter signal, replicate 2 = 7.46e5; firefly Hh reporter signal, replicate 3 = 1.50e5; Renilla reference signal, replicate 1 = 42980; Renilla reference signal, replicate 2 = 5522; inactive.
Against CG4907 (GeneID 42686) [DRSC15673], the entry reads firefly Hh reporter signal, replicate 1 = 5.53e5; firefly Hh reporter signal, replicate 2 = 74970; Renilla reference signal, replicate 1 = 29842; Renilla reference signal, replicate 2 = 2477; inactive.
Silencing of prc (GeneID 43930) [DRSC11385] came out at: firefly Hh reporter signal, replicate 1 = 54800; firefly Hh reporter signal, replicate 2 = 46731; firefly Hh reporter signal, replicate 3 = 40900; Renilla reference signal, replicate 1 = 3976; Renilla reference signal, replicate 2 = 2709; inactive.
E(spl)m7-HLH (GeneID 43160) [DRSC16696] scored firefly Hh reporter signal, replicate 1 = 4.69e5; firefly Hh reporter signal, replicate 2 = 92275; Renilla reference signal, replicate 1 = 27635; Renilla reference signal, replicate 2 = 3126; inactive.
After knock-down of alpha-Est5 (GeneID 40905) [DRSC12617], the record shows firefly Hh reporter signal, replicate 1 = 1.70e5; firefly Hh reporter signal, replicate 2 = 1.26e5; Renilla reference signal, replicate 1 = 6696; Renilla reference signal, replicate 2 = 4922; inactive.
With knock-down of CG15198 (GeneID 32065) [DRSC19645], the screen gave firefly Hh reporter signal, replicate 1 = 83669; firefly Hh reporter signal, replicate 2 = 2.66e5; Renilla reference signal, replicate 1 = 2392; Renilla reference signal, replicate 2 = 10583; inactive.
Silencing of CG31104 (GeneID 43054) [DRSC14658] gave: firefly Hh reporter signal, replicate 1 = 5.26e5; firefly Hh reporter signal, replicate 2 = 1.11e5; Renilla reference signal, replicate 1 = 25124; Renilla reference signal, replicate 2 = 3172; inactive.
After knock-down of CG15012 (GeneID 38529) [DRSC08465], the record shows firefly Hh reporter signal, replicate 1 = 1.15e5; firefly Hh reporter signal, replicate 2 = 74540; Renilla reference signal, replicate 1 = 5152; Renilla reference signal, replicate 2 = 2763; inactive.
Art9 (GeneID 41698) [DRSC16584] showed firefly Hh reporter signal, replicate 1 = 92301; firefly Hh reporter signal, replicate 2 = 81483; Renilla reference signal, replicate 1 = 3526; Renilla reference signal, replicate 2 = 2756; inactive.
CG12056 (GeneID 31855) [DRSC17796] scored firefly Hh reporter signal, replicate 1 = 89936; firefly Hh reporter signal, replicate 2 = 71760; Renilla reference signal, replicate 1 = 1881; Renilla reference signal, replicate 2 = 1731; inactive.
RpL34b (GeneID 41120) [DRSC16475] scored firefly Hh reporter signal, replicate 1 = 65895; firefly Hh reporter signal, replicate 2 = 83106; Renilla reference signal, replicate 1 = 2908; Renilla reference signal, replicate 2 = 4157; active.
Depletion of Cyp6a22 (GeneID 49847) [DRSC07382] resulted in: firefly Hh reporter signal, replicate 1 = 1.18e5; firefly Hh reporter signal, replicate 2 = 62837; Renilla reference signal, replicate 1 = 4633; Renilla reference signal, replicate 2 = 1863; inactive.
ct (GeneID 44540) [DRSC18757] scored firefly Hh reporter signal, replicate 1 = 98775; firefly Hh reporter signal, replicate 2 = 38186; Renilla reference signal, replicate 1 = 6397; Renilla reference signal, replicate 2 = 1888; inactive.
With knock-down of LysB (GeneID 38125) [DRSC08673] the results were firefly Hh reporter signal, replicate 1 = 67203; firefly Hh reporter signal, replicate 2 = 55192; Renilla reference signal, replicate 1 = 2354; Renilla reference signal, replicate 2 = 4069; inactive.
Fer3HCH (GeneID 32260) [DRSC19892] scored firefly Hh reporter signal, replicate 1 = 1.13e5; firefly Hh reporter signal, replicate 2 = 3.96e5; Renilla reference signal, replicate 1 = 3059; Renilla reference signal, replicate 2 = 12642; inactive.

3 entries from above, reformatted.
Target gene,DRSC id,"firefly Hh reporter signal, replicate 1","firefly Hh reporter signal, replicate 2","firefly Hh reporter signal, replicate 3","Renilla reference signal, replicate 1","Renilla reference signal, replicate 2",outcome
CG31104 (GeneID 43054),DRSC14658,5.26e5,1.11e5,,25124,3172,inactive
CG15012 (GeneID 38529),DRSC08465,1.15e5,74540,,5152,2763,inactive
Art9 (GeneID 41698),DRSC16584,92301,81483,,3526,2756,inactive
